Source: article PMC10053807, “Natural Lipid Extracts as an Artificial Membrane for Drug Permeability Assay: In Vitro and In Silico Characterization” (Pharmaceutics, 2023)

Tests used:
[1] = PAMPA permeability, brain polar lipid extract (BPLE) membrane; conditions: n=3, * = not detected at acceptor side, value calculated from limit of detection
[2] = PAMPA permeability, heart total lipid extract (HTLE) membrane; conditions: bovine, pH 7.4, Mean Pe, n=3, * = not detected at acceptor side, value calculated from limit of detection
[3] = PAMPA permeability, brain total lipid extract (BTLE) membrane; conditions: n=3, * = not detected at acceptor side, value calculated from limit of detection
[4] = PAMPA permeability, liver polar lipid extract (LPLE) membrane; conditions: bovine, pH 7.4, Mean Pe, n=3, * = not detected at acceptor side, value calculated from limit of detection
[5] = PAMPA permeability, heart polar lipid extract (HPLE) membrane; conditions: bovine, pH 7.4
[6] = PAMPA permeability, liver total lipid extract (LTLE) membrane; conditions: bovine, pH 7.4

Compound | Mean Pe [1] | Papp at 4 h, 100 μM [2] | Mean Pe [3] | Papp at 4 h, 100 μM [4] | Papp at 4 h, 100 μM [5] | Papp at 4 h, 100 μM [6]
NS(=O)(=O)c1cc(C(=O)O)c(NCc2ccco2)cc1Cl [furosemide] | < 0,37* 10-6 cm/s | – | – | – | – | –
Cc1cc(NS(=O)(=O)c2ccc(N)cc2)no1 [sulfamethoxazole] | < 0,16* 10-6 cm/s | 0.42 ×10⁻⁶ cm/s | < 0,17* 10-6 cm/s | 1.14 ×10⁻⁶ cm/s | 1.1 ×10⁻⁶ cm/s | 1.59 ×10⁻⁶ cm/s
